Measurements taken from publication doi:10.1101/2023.05.23.542025.
Results are given in words; binding and its absence hold for the method and conditions named. Binding seen in cells or lysates may run through a third protein. Some binding calls cover weakened binding; strength is not graded here. For some of these results: Sequences can lack the tags named with a protein.

Chains of the proteins cited; added tags and fusions are not shown.
UniProt P45481: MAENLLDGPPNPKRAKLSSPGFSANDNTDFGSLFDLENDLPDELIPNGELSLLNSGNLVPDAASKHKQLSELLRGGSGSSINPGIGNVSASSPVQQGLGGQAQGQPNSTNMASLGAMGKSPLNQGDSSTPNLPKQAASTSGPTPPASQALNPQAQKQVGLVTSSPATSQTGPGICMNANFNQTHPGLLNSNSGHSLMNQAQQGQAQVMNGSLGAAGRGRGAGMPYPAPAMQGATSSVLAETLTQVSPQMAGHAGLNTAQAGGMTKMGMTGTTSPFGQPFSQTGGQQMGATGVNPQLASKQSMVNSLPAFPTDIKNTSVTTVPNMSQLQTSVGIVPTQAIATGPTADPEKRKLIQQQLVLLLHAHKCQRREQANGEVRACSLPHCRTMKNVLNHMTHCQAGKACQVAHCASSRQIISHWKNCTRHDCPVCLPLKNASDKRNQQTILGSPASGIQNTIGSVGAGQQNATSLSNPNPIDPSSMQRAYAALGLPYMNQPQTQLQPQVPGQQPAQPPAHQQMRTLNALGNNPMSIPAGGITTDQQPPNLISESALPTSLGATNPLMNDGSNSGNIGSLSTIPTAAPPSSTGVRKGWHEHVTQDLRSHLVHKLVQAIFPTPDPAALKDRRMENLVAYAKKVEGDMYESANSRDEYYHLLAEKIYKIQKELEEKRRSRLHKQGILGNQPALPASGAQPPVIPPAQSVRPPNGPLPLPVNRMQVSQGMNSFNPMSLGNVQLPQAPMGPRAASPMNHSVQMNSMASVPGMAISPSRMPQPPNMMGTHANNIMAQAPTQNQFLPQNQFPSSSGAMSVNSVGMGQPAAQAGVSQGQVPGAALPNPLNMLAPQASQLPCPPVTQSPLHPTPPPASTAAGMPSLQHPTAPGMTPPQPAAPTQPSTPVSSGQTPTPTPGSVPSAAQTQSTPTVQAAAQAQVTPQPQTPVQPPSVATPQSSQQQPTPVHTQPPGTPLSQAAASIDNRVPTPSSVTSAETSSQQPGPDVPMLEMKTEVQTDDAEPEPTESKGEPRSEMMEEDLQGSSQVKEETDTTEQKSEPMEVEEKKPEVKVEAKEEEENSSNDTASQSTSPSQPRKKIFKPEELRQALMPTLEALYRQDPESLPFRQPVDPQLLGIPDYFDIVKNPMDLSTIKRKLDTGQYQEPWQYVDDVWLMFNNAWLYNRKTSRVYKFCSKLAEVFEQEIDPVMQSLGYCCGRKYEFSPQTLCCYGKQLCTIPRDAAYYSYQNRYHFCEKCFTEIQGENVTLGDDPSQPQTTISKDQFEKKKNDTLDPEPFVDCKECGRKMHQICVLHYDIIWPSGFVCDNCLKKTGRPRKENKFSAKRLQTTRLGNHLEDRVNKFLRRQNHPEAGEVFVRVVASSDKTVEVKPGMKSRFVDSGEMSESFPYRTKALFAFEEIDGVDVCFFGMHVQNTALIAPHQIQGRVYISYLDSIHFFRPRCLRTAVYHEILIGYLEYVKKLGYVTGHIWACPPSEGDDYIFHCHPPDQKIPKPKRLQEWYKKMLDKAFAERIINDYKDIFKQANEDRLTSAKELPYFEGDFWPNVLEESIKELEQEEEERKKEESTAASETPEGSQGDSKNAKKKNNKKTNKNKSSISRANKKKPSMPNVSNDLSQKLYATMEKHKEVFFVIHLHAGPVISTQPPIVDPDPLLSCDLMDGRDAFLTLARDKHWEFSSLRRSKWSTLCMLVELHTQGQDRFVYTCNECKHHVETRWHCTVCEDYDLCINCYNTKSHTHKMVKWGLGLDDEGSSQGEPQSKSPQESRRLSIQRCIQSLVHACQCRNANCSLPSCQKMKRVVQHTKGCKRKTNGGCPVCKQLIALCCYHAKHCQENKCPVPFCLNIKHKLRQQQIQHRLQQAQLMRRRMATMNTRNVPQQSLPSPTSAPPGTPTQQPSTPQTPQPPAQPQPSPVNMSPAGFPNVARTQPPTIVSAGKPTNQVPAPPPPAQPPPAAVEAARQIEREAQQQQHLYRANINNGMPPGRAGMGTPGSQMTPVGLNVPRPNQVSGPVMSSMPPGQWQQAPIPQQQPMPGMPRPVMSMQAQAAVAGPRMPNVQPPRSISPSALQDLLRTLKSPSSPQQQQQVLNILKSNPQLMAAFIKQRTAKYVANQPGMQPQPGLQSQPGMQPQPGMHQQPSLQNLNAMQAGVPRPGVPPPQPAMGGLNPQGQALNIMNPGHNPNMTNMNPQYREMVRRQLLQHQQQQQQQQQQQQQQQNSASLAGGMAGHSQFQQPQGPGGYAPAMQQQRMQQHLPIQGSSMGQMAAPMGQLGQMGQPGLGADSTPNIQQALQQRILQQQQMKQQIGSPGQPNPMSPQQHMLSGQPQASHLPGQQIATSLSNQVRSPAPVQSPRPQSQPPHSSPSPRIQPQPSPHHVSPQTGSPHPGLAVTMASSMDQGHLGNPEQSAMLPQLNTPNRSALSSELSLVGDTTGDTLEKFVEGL

T1: Flag-tagged STAT6 (UniProt P52633)
T1 sequence: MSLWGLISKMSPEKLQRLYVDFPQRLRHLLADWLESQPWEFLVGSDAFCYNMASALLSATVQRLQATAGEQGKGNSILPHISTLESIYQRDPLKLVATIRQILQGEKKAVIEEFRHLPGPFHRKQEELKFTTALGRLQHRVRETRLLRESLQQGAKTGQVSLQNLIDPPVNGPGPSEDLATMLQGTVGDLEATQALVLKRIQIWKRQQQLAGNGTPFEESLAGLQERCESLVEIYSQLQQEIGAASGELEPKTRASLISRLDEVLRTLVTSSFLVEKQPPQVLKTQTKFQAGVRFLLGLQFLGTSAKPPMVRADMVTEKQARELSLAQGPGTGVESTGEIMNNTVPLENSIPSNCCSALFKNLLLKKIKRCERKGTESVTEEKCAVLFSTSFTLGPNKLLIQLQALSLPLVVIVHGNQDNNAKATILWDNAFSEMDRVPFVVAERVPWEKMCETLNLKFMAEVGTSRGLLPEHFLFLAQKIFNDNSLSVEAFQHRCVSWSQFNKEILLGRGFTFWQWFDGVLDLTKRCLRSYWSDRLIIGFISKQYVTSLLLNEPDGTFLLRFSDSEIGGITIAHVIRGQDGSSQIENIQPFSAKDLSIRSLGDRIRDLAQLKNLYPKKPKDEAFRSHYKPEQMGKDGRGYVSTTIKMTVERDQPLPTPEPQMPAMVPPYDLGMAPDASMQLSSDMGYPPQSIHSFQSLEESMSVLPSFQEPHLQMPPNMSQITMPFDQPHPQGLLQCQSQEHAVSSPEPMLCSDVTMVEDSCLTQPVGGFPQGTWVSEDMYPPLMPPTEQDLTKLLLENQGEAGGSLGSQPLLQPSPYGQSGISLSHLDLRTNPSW

T2: endogenous STAT6 (mouse (endogenous in VSMCs)) (UniProt P52633)
T2 sequence: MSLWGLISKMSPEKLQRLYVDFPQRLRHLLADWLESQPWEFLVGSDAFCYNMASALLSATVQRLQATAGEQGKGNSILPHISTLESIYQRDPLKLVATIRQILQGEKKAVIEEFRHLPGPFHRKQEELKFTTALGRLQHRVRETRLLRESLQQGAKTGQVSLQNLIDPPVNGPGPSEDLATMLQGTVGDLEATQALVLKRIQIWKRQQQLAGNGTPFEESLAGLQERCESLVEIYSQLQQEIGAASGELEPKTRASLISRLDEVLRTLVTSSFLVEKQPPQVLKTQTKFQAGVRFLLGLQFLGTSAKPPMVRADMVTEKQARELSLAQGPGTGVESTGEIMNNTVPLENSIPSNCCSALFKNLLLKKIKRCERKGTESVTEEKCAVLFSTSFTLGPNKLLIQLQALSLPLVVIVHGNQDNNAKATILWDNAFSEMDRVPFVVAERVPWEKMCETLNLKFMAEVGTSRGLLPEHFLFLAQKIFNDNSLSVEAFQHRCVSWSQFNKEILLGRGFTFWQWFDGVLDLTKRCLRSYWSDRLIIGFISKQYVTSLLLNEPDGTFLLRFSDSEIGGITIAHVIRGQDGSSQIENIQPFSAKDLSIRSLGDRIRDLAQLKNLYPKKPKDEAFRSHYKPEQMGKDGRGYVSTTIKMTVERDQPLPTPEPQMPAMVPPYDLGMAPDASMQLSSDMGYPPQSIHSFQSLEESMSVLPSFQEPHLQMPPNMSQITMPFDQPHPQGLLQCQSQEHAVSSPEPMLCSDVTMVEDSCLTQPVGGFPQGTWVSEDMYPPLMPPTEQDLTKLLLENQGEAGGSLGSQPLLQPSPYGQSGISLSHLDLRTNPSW

T3: recombinant glutathione S-transferase (GST)-fused STAT6 protein (UniProt P52633)
T3 sequence: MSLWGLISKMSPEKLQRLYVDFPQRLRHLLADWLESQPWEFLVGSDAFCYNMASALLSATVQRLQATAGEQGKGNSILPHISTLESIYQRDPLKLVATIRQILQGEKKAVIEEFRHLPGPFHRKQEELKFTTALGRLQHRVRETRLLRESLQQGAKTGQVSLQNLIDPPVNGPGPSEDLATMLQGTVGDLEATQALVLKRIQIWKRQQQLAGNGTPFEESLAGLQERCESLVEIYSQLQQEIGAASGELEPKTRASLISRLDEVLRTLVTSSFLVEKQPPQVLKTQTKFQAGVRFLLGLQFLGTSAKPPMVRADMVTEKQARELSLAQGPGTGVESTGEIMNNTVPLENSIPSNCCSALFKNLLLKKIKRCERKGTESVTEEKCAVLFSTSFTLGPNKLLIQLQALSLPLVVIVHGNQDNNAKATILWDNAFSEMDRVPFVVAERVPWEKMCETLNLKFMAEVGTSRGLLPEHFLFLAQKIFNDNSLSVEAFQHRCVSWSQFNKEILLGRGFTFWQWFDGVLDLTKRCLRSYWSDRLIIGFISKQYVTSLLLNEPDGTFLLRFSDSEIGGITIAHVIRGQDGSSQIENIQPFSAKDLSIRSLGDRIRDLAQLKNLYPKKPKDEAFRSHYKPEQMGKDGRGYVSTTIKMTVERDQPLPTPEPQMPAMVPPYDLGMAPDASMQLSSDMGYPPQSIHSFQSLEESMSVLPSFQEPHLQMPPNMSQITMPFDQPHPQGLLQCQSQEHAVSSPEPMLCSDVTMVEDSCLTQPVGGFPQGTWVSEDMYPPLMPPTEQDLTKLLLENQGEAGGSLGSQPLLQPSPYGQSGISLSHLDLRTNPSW


What was measured:
Flag-tagged STAT6 = target: T1, Flag-tagged STAT6; experiment: co-IP
[1] = target: T2, endogenous STAT6 (mouse (endogenous in VSMCs)); experiment: co-IP
[2] = target: T3, recombinant glutathione S-transferase (GST)-fused STAT6 protein; experiment: pull-down
HA-CBP = HA-CBP (UniProt P45481); experiment: co-IP

| Molecule | binding (Flag-tagged STAT6) | binding [1] | binding [2] | binding (HA-CBP) |
| --- | --- | --- | --- | --- |
| cAMP-response element binding protein (CBP) (from UniProt P45481 1-2441) | binds | binds | binds | – |
| Flag-tagged STAT6 (protein, UniProt P52633 1-837) MSLWGLISKMSPEKLQRLYVDFPQRLRHLLADWLESQPWEFLVGSDAFCYNMASALLSATVQRLQATAGEQGKGNSILPHISTLESIYQRDPLKLVATIRQILQGEKKAVIEEFRHLPGPFHRKQEELKFTTALGRLQHRVRETRLLRESLQQGAKTGQVSLQNLIDPPVNGPGPSEDLATMLQGTVGDLEATQALVLKRIQIWKRQQQLAGNGTPFEESLAGLQERCESLVEIYSQLQQEIGAASGELEPKTRASLISRLDEVLRTLVTSSFLVEKQPPQVLKTQTKFQAGVRFLLGLQFLGTSAKPPMVRADMVTEKQARELSLAQGPGTGVESTGEIMNNTVPLENSIPSNCCSALFKNLLLKKIKRCERKGTESVTEEKCAVLFSTSFTLGPNKLLIQLQALSLPLVVIVHGNQDNNAKATILWDNAFSEMDRVPFVVAERVPWEKMCETLNLKFMAEVGTSRGLLPEHFLFLAQKIFNDNSLSVEAFQHRCVSWSQFNKEILLGRGFTFWQWFDGVLDLTKRCLRSYWSDRLIIGFISKQYVTSLLLNEPDGTFLLRFSDSEIGGITIAHVIRGQDGSSQIENIQPFSAKDLSIRSLGDRIRDLAQLKNLYPKKPKDEAFRSHYKPEQMGKDGRGYVSTTIKMTVERDQPLPTPEPQMPAMVPPYDLGMAPDASMQLSSDMGYPPQSIHSFQSLEESMSVLPSFQEPHLQMPPNMSQITMPFDQPHPQGLLQCQSQEHAVSSPEPMLCSDVTMVEDSCLTQPVGGFPQGTWVSEDMYPPLMPPTEQDLTKLLLENQGEAGGSLGSQPLLQPSPYGQSGISLSHLDLRTNPSW | – | – | – | binds |
